Test results as given in publication PMC7862700.
This is a selection; strong and weak results do not stand in their true shares. At the low end of the ranking the order means little.

What follows are sequences tested against SPI1 (UniProt P17947) (assay: DAPPL (digital affinity profiling via proximity ligation, sequencing)). Conditions: 10 mM Tris-HCl pH 7.5, 50 mM NaCl, 1 mM DTT, 4% glycerol, room temperature, 30 min; GST-TFs on glutathione beads, 16-mer random dsDNA library, 0.1% …; high values mean tight binding; double strand, one strand shown; scale: fold enrichment (6-mer frequency, TF over GST control).

Sequence | binding signal
GCGGTT | 0.812
GTGCGT | 0.628
GTCGCG | 0.694
CAGTCC | 0.657
GAGAAG | 0.754
CCGGGG | 0.792
TCAGGA | 0.851
GCGTAG | 0.816
ATGGAG | 0.547
GGATTG | 0.746
AGGGGC | 0.714
TCAGGG | 0.802
TTGTGA | 0.807
GCAAGG | 0.817
GACAGG | 0.581
GGTTGA | 0.754
GAGTTA | 0.628
CCAGTG | 0.435
AGGTCA | 0.675
CGTAGA | 0.698

Sequence | binding signal
AAGGTG | 0.925
GCGTAC | 0.779
TGTAGT | 0.9
CATGTG | 0.8
CGTGCG | 0.621
AGACTA | 0.732
GAGATG | 0.625
CACGGG | 0.701
TACGTG | 0.647
GAGACG | 0.321
CGTGTC | 0.792
TGTGAA | 0.878
GGAGTA | 0.349
AGTAGT | 0.933
GGCGCT | 0.665
AGCCCG | 0.89
GTGGTG | 0.896
GTGCGG | 0.755
CCGTGC | 0.592
GTGCGA | 0.927

Quoted from the listing.
TGTGAA – binding signal: 0.878
GTGCGA – binding signal: 0.927
